Laboratory results as given in PubChem BioAssay AID493014 (National Center for Advancing Translational Sciences (NCATS), 2011).
In all, about 340,000 compounds went through this assay and about 170 (0.05%) were called active. This list was built around the results that the source calls inconclusive (neither active nor inactive); the mix of calls is not that of the screen. The call rests on the fitted dose curve; in most records, active means well fitted inhibition curve with a large enough effect in the signal ratio, with a control signal flat (not every such curve was filed as active); inconclusive means small, poorly fitted or top-dose-only effect, or effect the other way, or a change in a side signal; inactive means flat fitted curve, though single readings scatter; the % refers to the signal ratio. Potencies of inconclusive entries are doubtful fits and often do not repeat.

Assay: qHTS Assay to Find Inhibitors of Chronic Active B-Cell Receptor Signaling;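 on activity change, negative = inhibition: plate controls were basal doxycycline-induced cells for no effect and cells given 10 µM MG132 for full effect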
Conditions: ABC-DLBCL IkBa-CBG/CBR reporter, luminescence ratio (green luciferase fused to IkBa over red control in TMD8 lymphoma cells), 4 h; activity change, negative = inhibition: at 46.1 µM (top of the series)
Outline: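 Cell line TMD8 (human ABC DLBCL), stably expressing tet-inducible CBG68-IkBa fusion and CBR; IMDM/0.5% FBS; cpd up to 46 uM; dox induction, 4 h, 37C/5% CO2; dual luminescence; green/red ratio; MG132 control.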
Potency means the concentration at half of the fitted maximal effect.

SMILES | Potency | activity change, negative = inhibition
Cc1cccc(NC(=O)c2cc(S(=O)(=O)N3CCCCC3)c[nH]2)c1C | inconclusive: 6.31 µM [falling, single point] | –
CC(C)Nc1ccc(-n2nc3ccccc3[n+]2[O-])cc1 | inconclusive: 25.1 µM [falling, single point] | –
Nc1c(SCCC(=O)O)ccc2c1C(=O)c1ccccc1C2=O | – | inconclusive: -21%
O=C(CN1C(=O)C2CCCCC2C1=O)Nc1cc([N+](=O)[O-])ccc1F (configuration not stated) | – | inconclusive: 1.02%
COc1ccc(C2c3ccc4ccccc4c3Oc3ncn(CCCN(C)C)c(=N)c32)cc1 (configuration not stated) | inconclusive: 15.8 µM [falling, partial curve] | –
CC(=O)Nc1ccc(NC(=O)CSC2=NS(=O)(=O)c3cc(Cl)ccc3N2)cc1 | inconclusive: 14.6 µM [falling, partial curve] | –
Cc1ccc(COc2ccsc2C(=O)NN)cc1 | inconclusive: 28.2 µM [falling, single point] | –
CCCn1nc(NC(=O)C2CCCO2)c2cc3cccc(C)c3nc21 (configuration not stated) | – | inconclusive: 8.76%
COc1cccc(NC(=O)c2ccc3c(O)c(S(=O)(=O)c4ccccc4)c(=O)[nH]c3c2)c1 | – | inconclusive: -0.111%
Cn1c(SCC(=O)c2ccc(O)c(O)c2)nnc1-c1ccccc1 | – | inconclusive: -18.1%
N#CCSc1nccc(/C=C/c2ccccc2)n1 | – | inconclusive: -8.36%
COc1ccccc1C(=O)N(Cc1ccccc1)c1ccc(C)cc1 | – | inconclusive: 0.205%
NC(=O)C1CCN(C(=O)C(=O)c2cn(CC(=O)N3CCCCCC3)c3ccccc23)CC1 | – | inconclusive: 1.39%
CC(C)(C)NC(=O)C(OC(=O)Cn1nnc(-c2ccc(F)cc2)n1)c1ccncc1 (configuration not stated) | – | inactive
C=CCn1c[n+](CC(=O)c2ccc(Br)s2)c2ccccc21 | – | inactive
CC(C)(C)c1ccc(-c2cc(-c3ccccc3O)[nH]n2)cc1 | – | inactive
Cc1cc(C(=O)COC(=O)c2ccc[nH]c2=O)c(C)n1-c1ccccc1F | – | inactive
Cn1nccc1C(=O)N1CCc2c([nH]c3ccccc23)C1c1ccc(F)cc1 (configuration not stated) | – | inconclusive: 0.0113%
COc1ccc(N2CCN(C(C)C(=O)Nc3nnc(C)s3)CC2)cc1 (configuration not stated) | – | inconclusive: 2.09%
Clc1ccc(CO/N=C2\CCCc3nonc32)cc1 | – | inconclusive: 6.03%
O=C(O)c1ccc(C(=O)c2ccc3c(c2)C(=O)N(CCO)C3=O)cc1 | – | inconclusive: -0.827%

SMILES | Potency | activity change, negative = inhibition
CS(=O)(=O)NCCNc1ccc(Cl)cc1[N+](=O)[O-] | – | inconclusive: 6.27%
CC(=O)Nc1ccc(C(=O)COC(=O)C2CC2C)c(F)c1 (configuration not stated) | – | inconclusive: 9.23%
COC(=O)c1cc(NC(=O)c2ccc(OC)cc2)c(=O)oc1C | – | inactive
CCOC(=O)c1c(S(=O)(=O)Nc2cccc(Cl)c2)c(C)n(C)c1C | – | inconclusive: 6.51%
Cc1cc(C)cc(-n2cnc3cc(C(=O)NCCc4ccccc4)ccc32)c1 | – | inactive
CC(=C/c1ccccc1)/C=N/n1c(-c2ccco2)n[nH]c1=S | – | inconclusive: 8.03%
CCCN1C2CCCC1CC(NC(=S)Nc1ccc(OC)cc1)C2 (configuration not stated) | – | inconclusive: 2.42%
Cc1cc(C)nc(SCCCNCc2ccc(Br)cc2)n1 | – | inactive
CCOc1cc(C(N)=O)cc(Br)c1OC | – | inactive
Cc1nc(N/N=C/c2ccc(Br)cc2)cc(N2CCOCC2)n1 | – | inconclusive: -1.53%
COc1ccc2nc3c(cc2c1)c(NC(=O)c1cccs1)nn3CC(C)C | – | inconclusive: 4.59%
CC1(C)Cc2c(c(N3CCCC3)nc3sc4c(N5CCN(CCO)CC5)ncnc4c23)CO1 | inconclusive: 6.31 µM [falling, single point] | –
N#C/C(=C\c1ccc[nH]1)C(=O)Nc1ccccc1F | inconclusive: 35.5 µM [falling, partial curve, poor fit] | –
O=C(C1=C(O)C(=O)N(c2ncccn2)C1c1ccc(Cl)c(Cl)c1)c1ccco1 (configuration not stated) | – | inactive
CCC(CC)=NNc1ccc(S(N)(=O)=O)cc1[N+](=O)[O-] | – | inactive
CCN(CC(=O)Nc1ccc(NC(C)=O)cc1)C(=O)c1cccc(-n2cccc2)c1 | inconclusive: 29.1 µM [rising, partial curve, poor fit] | –
NC(=O)c1ccc(NC(=O)CN2CCN(S(=O)(=O)c3ccc4c(c3)OCCO4)CC2)cc1 | – | inconclusive: -0.621%
CCOC(=O)[C@@H]1[C@H]2COc3cc(OC)ccc3[C@H]2N2C(=O)N(c3cccc(F)c3)C(=O)[C@@]12C | – | inconclusive: 3.13%
Cc1ccccc1OCC(=O)Nc1cnn(CCCC(=O)O)c1 | inconclusive: 17.8 µM [falling, single point] | –
O=C(CN1CCN(c2ccccn2)CC1)Nc1ccc([N+](=O)[O-])cc1C(=O)Nc1ccccc1F | – | inactive
COC(C[C@H]1O[C@@H]1[C@H](O)COCc1ccccc1)OC | – | inactive

SMILES | Potency | activity change, negative = inhibition
CSc1ccccc1OCc1cc(C(=O)NC(C)c2cnn(C)c2)no1 (configuration not stated) | – | inconclusive: -7.45%
COc1ccc(-c2sc3cc4c(cc3c2C#CC2(N)CCCCC2)OCO4)cc1 | – | inconclusive: 5.24%
COc1ccc(NC(=O)c2ccc(CN3CCc4ccccc4C3)cc2)c(OC)c1 | – | inactive
COc1cc([N+](=O)[O-])cc(/C=N/NC(=O)C(C)Nc2cccc3ccccc23)c1O (configuration not stated) | – | inconclusive: 2.95%
Cc1nc(N2CCOCC2)c2oc3ccccc3c2n1 | – | inconclusive: -6.19%
CCN1C(=O)[C@H]2[C@H]3CN=C(SCc4ccc(Cl)cc4)N3[C@@](Cc3ccccc3)(C(=O)OC)[C@H]2C1=O | inconclusive: 18.4 µM [falling, partial curve, poor fit] | –
CCCC(C)NC(=O)c1ccc(OCc2ccc(Cl)cc2)c(OC)c1 (configuration not stated) | – | inconclusive: 7.78%
O=C(COC(=O)COc1ccc(Br)cc1)Nc1ccc2c(c1)OCCO2 | – | inactive
COc1cccc(NS(=O)(=O)c2ccc3[nH]cc(C(=O)NCCCOC(C)C)c(=O)c3c2)c1 | – | inconclusive: 3.65%
c1ccc(N/N=C(\Cc2nc3ccccc3[nH]2)c2ccccc2)cc1 | – | inconclusive: -2.42%
COc1ccc(S(N)(=O)=O)cc1C(=O)OCC1CCCCC1 | – | inconclusive: 10%
O=c1oc2cc(O)ccc2c2c1CCCC2 | – | inactive
NC(=O)c1cc(Cl)cn(-c2ccccc2)c1=O | – | inconclusive: 0.107%
CCc1c(C)sc(NC(=O)Cc2ccccc2OC)c1C(=O)N1CCOCC1 | – | inactive
O=C1N(Cc2cccc(Cl)c2)C[C@@H]2C[C@@H](c3cccc4cccnc34)N3CCC[C@@]123 | – | inconclusive: 10.3%
Cc1nc(C(=O)NC2CC2)sc1C1(C)CC(c2cccc([N+](=O)[O-])c2)=NO1 (configuration not stated) | – | inconclusive: -4.28%
CCN(CC(=O)Nc1c(F)cccc1F)C(=O)CCc1ccc(OC)cc1 | – | inconclusive: -18%
COc1cc(C)ccc1OCCOc1c(Cl)cc(Cl)cc1Cl | – | inconclusive: 2.97%
CN(c1ccc(C(=O)NC2CCCC2)cc1)S(=O)(=O)c1ccccc1 | – | inactive
Cc1ccc(C(=O)C2CCN(C(=S)NCC3CCCO3)CC2)cc1 (configuration not stated) | – | inconclusive: -12.2%
O=[N+]([O-])c1ccc(O)c(/C=N/Nc2ncnc3c2cnn3-c2ccccc2)c1 | – | inconclusive: 3.02%

6 entries from above, sorted by length of the SMILES, smallest number first.
SMILES | Potency | activity change, negative = inhibition
NC(=O)c1cc(Cl)cn(-c2ccccc2)c1=O | – | inconclusive: 0.107%
COc1cc(C)ccc1OCCOc1c(Cl)cc(Cl)cc1Cl | – | inconclusive: 2.97%
CCCC(C)NC(=O)c1ccc(OCc2ccc(Cl)cc2)c(OC)c1 (configuration not stated) | – | inconclusive: 7.78%
COc1ccc(NC(=O)c2ccc(CN3CCc4ccccc4C3)cc2)c(OC)c1 | – | inactive
COc1cccc(NS(=O)(=O)c2ccc3[nH]cc(C(=O)NCCCOC(C)C)c(=O)c3c2)c1 | – | inconclusive: 3.65%
O=C1N(Cc2cccc(Cl)c2)C[C@@H]2C[C@@H](c3cccc4cccnc34)N3CCC[C@@]123 | – | inconclusive: 10.3%

Later entries:

SMILES | Potency | activity change, negative = inhibition
O=C(Nc1ccc(Nc2ccccc2)cc1)c1ccccc1F | – | inconclusive: -11.7%
Cc1nn(C)c(C)c1CN(C)C(=O)CCCC(=O)O | inconclusive: 29.1 µM [falling, partial curve, poor fit] | –
C=CCN=c1scc(-c2ccco2)n1/N=C/c1ccc(O)c(O)c1O | – | inactive
COC(=O)CN1C(=O)N/C(=C/c2cc3c(cc2OC)OCO3)C1=O | – | inconclusive: 1.84%
CSCCNC(=O)c1ccc(OC2CCN(S(=O)(=O)N(C)C)CC2)cc1 | – | inconclusive: -3.01%
Cc1nnc(NC(=O)c2oc3ccccc3c2C)s1 | – | inconclusive: 8.82%
COc1cccc(NC(=O)Cn2cc(C=O)c3ccccc32)c1 | – | inactive
Cc1ccc(NC(=O)c2ccc(N/N=C/c3cccc(O)c3)c([N+](=O)[O-])c2)cc1 | – | inconclusive: -10.5%
Cc1cc(C(=O)N/N=C/c2ccc(O)c([N+](=O)[O-])c2)c(C)n1-c1ccc(F)cc1 | – | inconclusive: -12.3%
CCOC(=O)CCC(=O)Nc1ncnc2c1C(c1ccccc1)c1c(ccc3ccccc13)O2 (configuration not stated) | – | inconclusive: -14.4%
Cn1cc([N+](=O)[O-])c(C(=O)Nc2nc(-c3ccc(Cl)cc3)cs2)n1 | inconclusive: 3.66 µM [falling, partial curve] | –
COc1ccccc1-c1csc(NC(=O)c2cc(-c3cccs3)nc3ccccc23)n1 | – | inactive
CCCNc1ncnc2c1cnn2-c1ccc(OC)cc1 | inconclusive: 11.2 µM [falling, partial curve] | –
COc1ccc(-c2noc(=O)n2Cc2ccccc2F)cc1 | – | inconclusive: 5.57%
CCc1c(C#N)c(SCCC(=O)Nc2ccc(OC)cc2)nc2c1C(=O)CC(C)(C)C2 | – | inconclusive: 21.4%
CC(C)C/C(O)=C/c1nc2cc(Cl)ccc2oc1=O | – | inactive
COc1ccc(-c2oc3c(CC=C(C)C)c(O[C@@H]4O[C@H](CO)[C@@H](O)[C@H](O)[C@H]4O)cc(O)c3c(=O)c2O[C@@H]2O[C@@H](C)[C@H](O)[C@@H](O)[C@H]2O)cc1 | inconclusive: 25.1 µM [falling, single point] | –
CC(=O)c1sc(NC(=O)CCS(=O)(=O)c2ccc(Cl)cc2)nc1C | – | inconclusive: -12.6%
COc1ccccc1CNC(=O)C(=O)NCC(c1cccs1)S(=O)(=O)c1ccc(F)cc1 (configuration not stated) | inconclusive: 3.98 µM [falling, partial curve] | –
